Test results reported in PubChem BioAssay AID2685 (National Center for Advancing Translational Sciences (NCATS), 2010).
“And” between values parts separate entries of the source, which are not always exact repeats. Equal values may be shown once. The list shows a part of the results. Shown are side measurements of this screen, not its main read-out; they come without a call. Most of these compounds were active or inconclusive in the main read-out, so they are no random draw. Potencies come from curve fits of mixed quality, noted in brackets.

Assay: qHTS Assay for Lipid Storage Modulators in Drosophila S3 Cells;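 for cell number change: cells counted by Cell Tracker Red CMTPX staining in the red channel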
Conditions: BODIPY lipid droplet fluorescence, 18-24 h; for cell number change: measured here: cell count max response, cells fed with added oleic acid
Procedure, shortened: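 Drosophila S3 cells got compounds at several concentrations plus oleic acid (400 uM solution). Laser-scanning cytometry with 488 nm excitation read lipid droplets at 500-530 nm and cells at 575-640 nm. Percent activity was relative to 20 uM Triacsin C.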

[1] = measured here: cell number channel AC50, cells fed with added oleic acid
[2] = measured here: lipid fluorescence (Fed channel) AC50, cells fed with added oleic acid

Compound | cell number change [%] | AC50 [1] | AC50 [2]
Cc1cc(-c2ccc(C)c(S(=O)(=O)N3CCN(c4ccc(F)cc4)CC3)c2)on1 | 29.5 | 0.366 µM [rising, full curve, poor fit] | 29.1 µM [rising, single point]
Cc1cc(C)nc(SCc2ccc(C(=O)NN=C3C4CC5CC(C4)CC3C5)cc2)n1 | -33.3 | 0.00461 µM [falling, full curve, poor fit] | 18.4 µM [rising, single point]
Cn1c(SCC(=O)NC(=O)NCc2ccco2)nnc1C(F)(F)F | 24.1 |  | 0.651 µM [rising, full curve, poor fit]
O=C(CCN1C(=O)/C(=C/c2ccccc2Cl)SC1=S)NN1CCOCC1 | -3.06 |  | 0.259 µM [falling, partial curve, poor fit]
O=C(Nc1nc2ccccc2s1)C1CC(=O)N(c2ccccc2)C1 (stereo not given) | -14.2 |  | 
CCCOC(=O)c1ccc(NC(=O)c2c(Cl)ccc(Cl)c2OC)cc1 | 8.72 |  | 6.51 µM [rising, single point]
CCO[C@@H]1OC(C(=O)NCc2ccccc2)=C[C@H](c2ccc(Br)cc2)[C@H]1CCCO | -19.3 |  | 
CN(C)/C=N/c1nc(Sc2ccc(C(F)(F)F)cc2[N+](=O)[O-])n[nH]1 | 33.8 | 29.1 µM [rising, single point] | 13 µM [rising, partial curve, poor fit]
CCN(CC)C(=O)c1c(NC(=O)c2ccccc2)sc(C)c1C | 24.7 | 0.731 µM [rising, full curve, poor fit] | 
CN(CCCNC(=O)c1ccccc1F)CCCNC(=O)c1ccccc1F | -2.03 |  | 23.1 µM [falling, single point]
CCOC(=O)C1CCCN(c2ncnc3c2[nH]c2cccc(OC)c23)C1 (stereo not given) |  | 4.11 µM [falling, single point] | 9.2 µM [falling, partial curve]
COc1ccc(C(=O)c2sc3nc(-c4ccccc4)ccc3c2N)cc1OC | -48.9 | 18.4 µM [falling, single point] | 
Cc1ccc(NCc2ccccc2OCc2ccccc2F)cc1 | -32.3 | 20.6 µM [falling, single point] | 23.1 µM [falling, single point]
Cn1c(=O)c2c(nc(Oc3ccc4c(c3)OCO4)n2Cc2ccc(Br)cc2)n(C)c1=O | 14.9 |  | 3.66 µM [falling, single point]
COc1ccc(CCC(=O)N2CC(C)OC(C)C2)cc1 (stereo not given) | 1.69 |  | 7.31 µM [falling, partial curve]
CC(C)c1ccc2c(c1)c(SC(C)(C)C)c(CC(C)(C)C(=O)O)n2Cc1ccc(Cl)cc1 | -79.5 | 14.6 µM [falling, partial curve] and 6.51 µM [rising, single point] | 16.4 µM [falling, partial curve]
Cc1ccc(N2CC(C(=O)OCC(=O)Nc3cccc(Cl)c3C)CC2=O)cc1 (stereo not given) | 26.6 |  | 0.461 µM [rising, single point]
NC(=O)c1ccccc1NC(=O)C1CCCO1 (stereo not given) | 8.2 |  | 32.6 µM [rising, single point]
Cc1cc(C)cc(NC(=S)N2CCC(NC(=O)c3ccccc3C)CC2)c1 | 9.82 |  | 23.1 µM [rising, partial curve]

Compound | cell number change [%] | AC50 [1] | AC50 [2]
CCOC(=O)C1CCCN(C(=S)Nc2ccc(Nc3ccccc3)cc2)C1 (stereo not given) | -39.5 |  | 0.562 µM [falling, full curve, poor fit]
CCN(CC)S(=O)(=O)c1ccc(NC(=O)COC(=O)CNC(=O)C2CCCCC2)cc1 | -42.6 | 0.366 µM [falling, full curve] | 
COc1ccc(CCNC(=O)C2CCN(S(=O)(=O)c3cccc4nsnc34)CC2)cc1OC |  |  | 20.6 µM [rising, single point]
CC(C)NC(=S)N/N=C/c1c[nH]c2ccccc12 |  |  | 1.84 µM [rising, partial curve]
COC(=O)[C@@H]1C[C@H]1[C@@H](NC(=O)c1ccccc1)c1ccccc1 | -5.11 |  | 9.2 µM [rising, partial curve, poor fit]
Clc1ccc(CSc2ncn(-c3ccccc3)n2)cc1 | -51.4 | 14.6 µM [falling, partial curve, poor fit] | 0.326 µM [falling, partial curve]
Clc1ccc(/C=N/c2c(-c3ccc(Cl)cc3)nc3n2CCS3)cc1 | -16.2 |  | 5.8 µM [falling, full curve, poor fit]
CSc1ccccc1NC(=O)C1=COCCO1 | 2.79 |  | 
CN(C)S(=O)(=O)c1ccc(C(=O)Nc2ccccc2[N+](=O)[O-])cc1 | 24 |  | 32.6 µM [rising, single point]
CCCCOc1ccc(S(=O)(=O)Nc2ccc(NC(C)=O)cc2)cc1 | -27.1 |  | 13 µM [falling, single point]
Cc1nn(-c2ccccc2)c2[nH]c(=O)c(CNc3ccc4c(c3)OCCO4)cc12 | 18.1 |  | 
COc1ccc(S(=O)(=O)Nc2cc(OC)c(NC(=O)c3ccco3)cc2OC)cc1 | 40.9 | 0.291 µM [rising, full curve] | 1.84 µM [rising, partial curve]
O=C(CN1C(=O)c2ccccc2C1=O)NC1CCCCC1 |  |  | 0.058 µM [rising, full curve, poor fit]
COCCn1c(=S)[nH]c2cc(C(=O)NCCc3ccccc3)ccc2c1=O |  |  | 0.411 µM [falling, full curve]
O=S(=O)(c1ccc(OCC(O)CN2CCN(c3ccccc3)CC2)cc1)N1CCOCC1 (stereo not given) |  | 0.82 µM [falling, full curve, poor fit] | 
Cc1c(-c2ccccc2)sc(Br)c1C(=O)N1CCOCC1 | -3.68 |  | 6.51 µM [falling, single point]
Cc1cccc(N(CC(O)CN(C)C)S(=O)(=O)c2ccccc2)c1 (stereo not given) | -38.5 |  | 29.1 µM [falling, single point]
CN1CCN(S(=O)(=O)c2ccc(NC(=O)c3ccco3)cc2)CC1 | -45.8 | 1.16 µM [falling, full curve] | 3.26 µM [falling, full curve]
CN(Cc1ccccc1)C(=O)c1[nH]cnc1C(=O)NCc1ccc(CNC(=O)OC(C)(C)C)cc1 | 14.4 |  | 20.6 µM [falling, single point]

Compound | cell number change [%] | AC50 [1] | AC50 [2]
O=C(N/N=C\c1ccc(Br)cc1)c1ccc(Cn2cccn2)o1 |  |  | 10.3 µM [rising, partial curve, poor fit]
N/C(=N\OC(=O)c1ccc2ccccc2c1)c1ccc(Br)cc1 | -23.2 | 6.51 µM [rising, partial curve, poor fit] | 6.51 µM [rising, partial curve, poor fit]
CN1CCCN(S(=O)(=O)c2ccc(O)c(C(=O)O)c2)CC1 | 19 |  | 32.6 µM [rising, single point]
COc1cc(C2Nc3ccccc3C(=O)N2NS(C)(=O)=O)ccc1O (stereo not given) | -26.3 |  | 
C/C(=N\NC(=S)NC(C)C)c1ccccc1OC(F)F | 30.2 | 0.00411 µM [rising, full curve, poor fit] | 
Cc1nn(Cc2ccccc2)c(C)c1C(=O)NCCN1C(=O)S/C(=C\c2ccccc2)C1=O | -34.9 | 29.1 µM [falling, single point] | 29.1 µM [falling, single point]
COc1ccc(-c2csc3ncnc(N4CCN(c5ccccc5[N+](=O)[O-])CC4)c23)cc1 | -21.3 |  | 29.1 µM [falling, single point]
CCc1nnc(NC(=O)c2cccc(S(=O)(=O)N3CCN(c4ccccc4)CC3)c2)s1 | -10.5 |  | 
O=c1c2c3c(sc2ncn1Cc1ccc(F)cc1)CCC3 |  | 2.91 µM [rising, partial curve] | 4.61 µM [rising, partial curve]
C=CCN(CC=C)S(=O)(=O)c1ccc(C(=O)Nc2nc3c(s2)CCc2ccccc2-3)cc1 | -5.3 | 1.64 µM [rising, partial curve] | 2.59 µM [rising, partial curve]
Cc1onc(-c2c(F)cccc2Cl)c1C(=O)Nc1cccc2nsnc12 | -3.07 |  | 6.51 µM [falling, single point]
c1ccc(-c2nnsc2-c2ccccc2)cc1 |  |  | 0.651 µM [rising, single point]
COc1ccc([C@H]2CC(=O)C=C(c3ccc(O)cc3)C2)cc1OC | -48.9 | 1.3 µM [falling, full curve] | 1.3 µM [falling, full curve]
CCCCCCN(C(=O)CCCCCN1C(=O)NC(c2ccc(-c3ccccc3)cc2)C(C(=O)OCc2ccccc2)=C1C)C(C(=O)NCCCC)c1ccccc1 (stereo not given) | -11.5 |  | 0.651 µM [falling, full curve]
Cc1ccc(S(=O)(=O)Nc2cc(NC(=O)CN3CCOCC3)ccc2Cl)cc1 | -14.2 |  | 
Cc1sc2ncnc(-n3cnc4ccccc43)c2c1C | -8.18 |  | 1.3 µM [falling, partial curve, poor fit]
Cc1cc(C)c(C(=O)Nc2ccc(Br)c(C(F)(F)F)c2)c(C)c1 | -20.5 |  | 29.1 µM [falling, single point]
Cc1ccccc1Nc1c([N+](=O)[O-])ccc2c1=NC1(CCCCC1)N=2 | -0.481 |  | 29.1 µM [falling, single point]

An excerpt of these results, as labelled records.
CCCCCCN(C(=O)CCCCCN1C(=O)NC(c2ccc(-c3ccccc3)cc2)C(C(=O)OCc2ccccc2)=C1C)C(C(=O)NCCCC)c1ccccc1 (stereo not given)
  cell number change [%]: -11.5; AC50 [2]: 0.651 µM [falling, full curve]
Cc1ccc(S(=O)(=O)Nc2cc(NC(=O)CN3CCOCC3)ccc2Cl)cc1
  cell number change [%]: -14.2
